No constants are given. Whether binding was seen depends on the method and setting. For some assays here: In cells and extracts the contact can be indirect. Some entries that bind do so weakly or less than the wild type. Sequences can lack the tags named with a protein.
Legend:
[1] = biological target: T1, His-Gabpα-FL (UniProt Q00422); assay: co-IP; HEK293T cotransfected with His-Gabpα (or C-terminal truncation mutants) and the indicated plasmids, 72 h; lysis buffer 50 mM Tris-HCl pH 7.4, 150 mM NaCl, 1% Triton X-100, 1 mM EDTA; IP with anti-His on protein A/G magnetic beads, overnight at 4 °C; immunoblot
T1 sequence: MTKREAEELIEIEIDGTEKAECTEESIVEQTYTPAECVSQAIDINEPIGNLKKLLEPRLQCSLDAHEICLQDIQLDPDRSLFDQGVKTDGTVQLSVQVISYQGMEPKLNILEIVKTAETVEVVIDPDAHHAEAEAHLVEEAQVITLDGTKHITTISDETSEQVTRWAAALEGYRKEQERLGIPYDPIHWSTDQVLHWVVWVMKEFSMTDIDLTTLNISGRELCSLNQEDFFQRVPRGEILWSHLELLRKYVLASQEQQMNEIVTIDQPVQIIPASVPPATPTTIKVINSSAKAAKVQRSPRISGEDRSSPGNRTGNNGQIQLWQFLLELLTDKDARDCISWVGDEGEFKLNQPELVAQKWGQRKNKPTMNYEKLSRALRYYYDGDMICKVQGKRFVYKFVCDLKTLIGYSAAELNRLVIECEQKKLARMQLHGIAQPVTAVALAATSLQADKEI

The chains behind the UniProt entries cited, without tags or fusion partners.
UniProt A2A935: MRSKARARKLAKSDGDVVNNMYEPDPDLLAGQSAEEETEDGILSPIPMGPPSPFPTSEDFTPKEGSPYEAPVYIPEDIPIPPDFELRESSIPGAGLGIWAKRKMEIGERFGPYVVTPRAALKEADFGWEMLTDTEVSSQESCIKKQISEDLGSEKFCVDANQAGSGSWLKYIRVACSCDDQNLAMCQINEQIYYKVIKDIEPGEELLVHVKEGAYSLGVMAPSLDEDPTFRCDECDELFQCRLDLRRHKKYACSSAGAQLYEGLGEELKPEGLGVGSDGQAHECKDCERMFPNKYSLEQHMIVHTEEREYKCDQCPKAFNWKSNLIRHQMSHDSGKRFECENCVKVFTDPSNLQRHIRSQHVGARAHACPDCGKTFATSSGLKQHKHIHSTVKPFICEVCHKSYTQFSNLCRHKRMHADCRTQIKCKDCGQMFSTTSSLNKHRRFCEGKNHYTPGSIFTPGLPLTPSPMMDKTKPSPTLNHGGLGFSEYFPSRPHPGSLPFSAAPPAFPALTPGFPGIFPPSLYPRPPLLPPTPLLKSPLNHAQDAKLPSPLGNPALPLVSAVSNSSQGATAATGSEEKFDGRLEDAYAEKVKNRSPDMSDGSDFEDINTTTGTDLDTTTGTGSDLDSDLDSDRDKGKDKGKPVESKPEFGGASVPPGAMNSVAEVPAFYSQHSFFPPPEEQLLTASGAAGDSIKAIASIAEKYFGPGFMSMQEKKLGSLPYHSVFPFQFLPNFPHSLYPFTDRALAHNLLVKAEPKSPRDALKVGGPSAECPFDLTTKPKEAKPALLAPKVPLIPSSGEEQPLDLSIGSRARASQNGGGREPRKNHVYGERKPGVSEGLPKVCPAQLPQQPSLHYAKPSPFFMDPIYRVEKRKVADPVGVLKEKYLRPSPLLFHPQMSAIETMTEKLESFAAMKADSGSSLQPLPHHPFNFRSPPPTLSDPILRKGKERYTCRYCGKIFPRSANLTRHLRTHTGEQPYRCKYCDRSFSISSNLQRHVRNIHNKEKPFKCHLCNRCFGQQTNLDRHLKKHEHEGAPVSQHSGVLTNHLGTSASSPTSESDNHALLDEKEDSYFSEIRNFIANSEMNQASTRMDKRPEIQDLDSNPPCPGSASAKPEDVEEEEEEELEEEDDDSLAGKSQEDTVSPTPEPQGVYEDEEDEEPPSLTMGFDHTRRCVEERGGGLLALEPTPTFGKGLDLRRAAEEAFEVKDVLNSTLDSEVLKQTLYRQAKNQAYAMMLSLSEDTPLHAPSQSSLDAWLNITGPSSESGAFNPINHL
UniProt P37238: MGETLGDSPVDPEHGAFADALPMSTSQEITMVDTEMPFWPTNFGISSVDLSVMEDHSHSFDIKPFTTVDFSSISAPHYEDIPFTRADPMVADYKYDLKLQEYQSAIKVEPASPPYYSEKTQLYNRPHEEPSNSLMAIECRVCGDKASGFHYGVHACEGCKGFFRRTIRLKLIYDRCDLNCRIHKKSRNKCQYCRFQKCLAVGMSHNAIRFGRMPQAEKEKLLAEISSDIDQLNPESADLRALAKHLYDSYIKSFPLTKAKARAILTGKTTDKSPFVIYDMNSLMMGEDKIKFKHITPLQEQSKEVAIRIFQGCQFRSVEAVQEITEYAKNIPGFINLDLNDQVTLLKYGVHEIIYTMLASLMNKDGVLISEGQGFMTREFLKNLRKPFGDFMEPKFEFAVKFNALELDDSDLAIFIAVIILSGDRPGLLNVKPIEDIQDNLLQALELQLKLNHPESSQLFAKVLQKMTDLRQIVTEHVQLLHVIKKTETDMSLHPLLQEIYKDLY

[2] = biological target: T2, GST-Gabpα fusion protein (UniProt Q00422); assay: pull-down; GST-Gabpα (1 µg) on glutathione magnetic agarose beads, 4 °C 2 h, then His-Pparγ (1 µg) at 4 °C overnight; four washes; immunoblot; both purified
T2 sequence: T1 sequence

[3] = biological target: T3, Flag-Gabpα (lentivirus, iBAT-SVF cells) (UniProt Q00422); assay: co-IP; differentiated iBAT-SVF cells with Flag-Gabpα lentivirus; IP with anti-Flag or control IgG on protein A/G magnetic beads; immunoblot
T3 sequence: T1 sequence

[4] = biological target: T4, His-Gabpα-FL, Q00422; assay: co-IP; HEK293T cotransfected with His-Gabpα (or C-terminal truncation mutants) and the indicated plasmids, 72 h; lysis buffer 50 mM Tris-HCl pH 7.4, 150 mM NaCl, 1% Triton X-100, 1 mM EDTA; IP with anti-His on protein A/G magnetic beads, overnight at 4 °C; immunoblot; details: remark: other sources report otherwise
T4 chain: T1 sequence

With “Flag-Prdm16 (from UniProt A2A935 1-1275)” the binding [1] was “no binding”.

With “His-Pparγ protein (from UniProt P37238 1-505)” the binding [2] was “binds”.

Myc-Pparγ (from UniProt P37238 1-505) was tested, and the binding [1] was “binds”.

In the case of “Pparγ (differentiated iBAT-SVF cells) (from UniProt P37238 1-505)”, the binding [3] is reported as “binds”.

B1: Flag-Pgc1α, O70343 1-797 (protein)
chain: MAWDMCSQDSVWSDIECAALVGEDQPLCPDLPELDLSELDVNDLDTDSFLGGLKWCSDQSEIISNQYNNEPANIFEKIDEENEANLLAVLTETLDSLPVDEDGLPSFDALTDGAVTTDNEASPSSMPDGTPPPQEAEEPSLLKKLLLAPANTQLSYNECSGLSTQNHAANHTHRIRTNPAIVKTENSWSNKAKSICQQQKPQRRPCSELLKYLTTNDDPPHTKPTENRNSSRDKCASKKKSHTQPQSQHAQAKPTTLSLPLTPESPNDPKGSPFENKTIERTLSVELSGTAGLTPPTTPPHKANQDNPFKASPKLKPSCKTVVPPPTKRARYSECSGTQGSHSTKKGPEQSELYAQLSKSSGLSRGHEERKTKRPSLRLFGDHDYCQSLNSKTDILINISQELQDSRQLDFKDASCDWQGHICSSTDSGQCYLRETLEASKQVSPCSTRKQLQDQEIRAELNKHFGHPCQAVFDDKSDKTSELRDGDFSNEQFSKLPVFINSGLAMDGLFDDSEDESDKLSYPWDGTQPYSLFDVSPSCSSFNSPCRDSVSPPKSLFSQRPQRMRSRSRSFSRHRSCSRSPYSRSRSRSPGSRSSSRSCYYYESSHYRHRTHRNSPLYVRSRSRSPYSRRPRYDSYEAYEHERLKRDEYRKEHEKRESERAKQRERQKQKAIEERRVIYVGKIRPDTTRTELRDRFEVFGEIEECTVNLRDDGDSYGFITYRYTCDAFAALENGYTLRRSNETDFELYFCGRKQFFKSNYADLDTNSDDFDPASTKSKYDSLDFDSLLKEAQRSLRR
With B1 the binding [4] was “no binding”.
